Measured values published in patent publication US8614290B2, “Cancer imaging and treatment” (Technische Universitat Munchen, priority 2007, dated 2013).
Part of at least one peptide drawing is inferred or uncertain, most often the ends. At least one structure is not confirmed: it was looked up by name or label, or the drawing left a doubt. Peptide text beside a SMILES is read from it.

Protein sequences, listed by entry. Tags and fused reporters are not part of them.
UniProt P61073, whole entry: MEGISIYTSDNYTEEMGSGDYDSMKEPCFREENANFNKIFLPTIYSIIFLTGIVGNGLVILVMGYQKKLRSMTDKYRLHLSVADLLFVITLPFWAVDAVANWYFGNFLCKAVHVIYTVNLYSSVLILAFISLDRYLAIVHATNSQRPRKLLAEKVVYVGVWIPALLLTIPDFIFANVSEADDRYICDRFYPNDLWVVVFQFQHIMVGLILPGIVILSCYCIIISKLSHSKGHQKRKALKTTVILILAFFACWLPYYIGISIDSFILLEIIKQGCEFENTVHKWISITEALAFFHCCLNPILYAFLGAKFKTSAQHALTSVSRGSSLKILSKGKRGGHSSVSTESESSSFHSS

Biological target: human CXCR4 (Homo sapiens, UniProt P61073)
Assay: Competitive receptor binding assay on Jurkat cells with 125I-CPCR4 as tracer
Parameters: Jurkat cells that endogenously express the CXCR4 receptor; endogenous in cells; host or cells: Jurkat cells
Details: for IC50: Table 10, dimers and monomers
Method: For receptor binding assays cells were resuspended in PBS/0.2% BSA. A total of 200 μl of the suspension containing 400,000 Jurkat cells were incubated with 25 μl of the tracer solution (containing 3.1 kBq, approx. 0.1 nM) and 25 μl of the diluent or the competitor at different concentrations. […] After shaking for 2 h at room temperature, the incubation was terminated by centrifugation at 1300 rpm for 5 min. Cell pellets were washed once with cold PBS followed by a second centrifugation step. Cell bound radioactivity was determined by using a gamma counter. Experiments were repeated 2-3 times in triplicates. IC50 values of the compounds were calculated by nonlinear regression using GraphPad Prism (GraphPad Prism 4.0 Software, Inc., San Diego, Calif., USA). Each data point is the average of three determinations.

Structure (SMILES)	IC50	affinity for CXCR4 (in words)
CN1C(=O)[C@@H](Cc2ccc(O)cc2)NC(=O)CNC(=O)[C@H](Cc2ccc3ccccc3c2)NC(=O)[C@H](CCCNC(=N)N)NC(=O)[C@H]1CCCNC(=O)CN [Monomer containing NMe-D-Orn + Gly] (HELM PEPTIDE1{[O=C([C@H](Cc1ccc2ccccc2c1)N[*:1])[*:2]].G.[dY].[CN([C@H](CCCN[*:3])C(=O)[*:2])[*:1]].R}|PEPTIDE2{G}$PEPTIDE1,PEPTIDE2,4:R3-1:R2|PEPTIDE1,PEPTIDE1,1:R1-5:R2$$$V2.0)	2.22 nM	–
CN1C(=O)[C@@H](Cc2ccc(O)cc2)NC(=O)CNC(=O)[C@H](Cc2ccc3ccccc3c2)NC(=O)[C@H](CCCNC(=N)N)NC(=O)[C@H]1CCCNC(=O)CC(CC(=O)NCCC[C@@H]1C(=O)N[C@@H](CCCNC(=N)N)C(=O)N[C@@H](Cc2ccc3ccccc3c2)C(=O)NCC(=O)N[C@H](Cc2ccc(O)cc2)C(=O)N1C)NC(=O)CCCCCNC(=O)CN1CCN(CC(=O)O)CCN(CC(=O)O)CCN(CC(=O)O)CC1 (single isomer, unassigned) [NMe-D-Orn DOTAAhxbetaAsp]	43.5 nM	–
CN1C(=O)[C@@H](Cc2ccc(O)cc2)NC(=O)CNC(=O)[C@H](Cc2ccc3ccccc3c2)NC(=O)[C@H](CCCNC(=N)N)NC(=O)[C@H]1CCCNC(=O)CC(CC(=O)NCCC[C@@H]1C(=O)N[C@@H](CCCNC(=N)N)C(=O)N[C@@H](Cc2ccc3ccccc3c2)C(=O)NCC(=O)N[C@H](Cc2ccc(O)cc2)C(=O)N1C)NC(=O)CCCCCNC(=O)CN1CCN(CC(=O)O)CCN(CC(=O)O)CCN(CC(=O)O)CC1 (single isomer, unassigned) [NMe-D-Orn InDOTAAhxbetaAsp]	45.4 nM	–
CN1C(=O)[C@@H](Cc2ccc(O)cc2)NC(=O)CNC(=O)[C@H](Cc2ccc3ccccc3c2)NC(=O)[C@H](CCCN=C(N)N)NC(=O)[C@H]1CCCNC(=O)CNC(=O)CC(CC(=O)NCC(=O)NCCC[C@@H]1C(=O)N[C@@H](CCCN=C(N)N)C(=O)N[C@@H](Cc2ccc3ccccc3c2)C(=O)NCC(=O)N[C@H](Cc2ccc(O)cc2)C(=O)N1C)NC(=O)CCCCCNC(=O)CN1CCN(CC(=O)O)CCN(CC(=O)O)CCN(CC(=O)O)CC1 (single isomer, unassigned) [NMe-D-Orn + Gly InDOTAAhxbetaAsp]	22.3 nM	–
CN1C(=O)[C@@H](Cc2ccc(O)cc2)NC(=O)CNC(=O)[C@H](Cc2ccc3ccccc3c2)NC(=O)[C@H](CCCNC(N)=O)NC(=O)[C@H]1CCCN [cyclo[D-Tyr-(Me)-D-Orn-Cit-2-Nal-Gly]]	–	no affinity for CXCR4
